Here are results for two molecules from publication PMC4810098.

Amino acid sequences for entries named in this document (tags omitted). A change or cut given only in a name is not applied to a line headed by its entry.
UniProt P06709: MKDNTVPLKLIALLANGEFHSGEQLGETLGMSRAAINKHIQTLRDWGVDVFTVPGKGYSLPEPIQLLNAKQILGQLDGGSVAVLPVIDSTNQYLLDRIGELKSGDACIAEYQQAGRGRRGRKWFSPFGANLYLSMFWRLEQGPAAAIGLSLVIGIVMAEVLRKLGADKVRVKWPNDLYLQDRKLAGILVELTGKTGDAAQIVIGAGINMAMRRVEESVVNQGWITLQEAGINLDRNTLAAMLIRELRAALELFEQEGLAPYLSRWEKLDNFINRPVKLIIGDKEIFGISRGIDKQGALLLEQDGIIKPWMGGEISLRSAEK

Assay [1] deals with T1, BirA-R118G-NE81 (Dictyostelium discoideum) (UniProt Q54HI5).
T1 sequence: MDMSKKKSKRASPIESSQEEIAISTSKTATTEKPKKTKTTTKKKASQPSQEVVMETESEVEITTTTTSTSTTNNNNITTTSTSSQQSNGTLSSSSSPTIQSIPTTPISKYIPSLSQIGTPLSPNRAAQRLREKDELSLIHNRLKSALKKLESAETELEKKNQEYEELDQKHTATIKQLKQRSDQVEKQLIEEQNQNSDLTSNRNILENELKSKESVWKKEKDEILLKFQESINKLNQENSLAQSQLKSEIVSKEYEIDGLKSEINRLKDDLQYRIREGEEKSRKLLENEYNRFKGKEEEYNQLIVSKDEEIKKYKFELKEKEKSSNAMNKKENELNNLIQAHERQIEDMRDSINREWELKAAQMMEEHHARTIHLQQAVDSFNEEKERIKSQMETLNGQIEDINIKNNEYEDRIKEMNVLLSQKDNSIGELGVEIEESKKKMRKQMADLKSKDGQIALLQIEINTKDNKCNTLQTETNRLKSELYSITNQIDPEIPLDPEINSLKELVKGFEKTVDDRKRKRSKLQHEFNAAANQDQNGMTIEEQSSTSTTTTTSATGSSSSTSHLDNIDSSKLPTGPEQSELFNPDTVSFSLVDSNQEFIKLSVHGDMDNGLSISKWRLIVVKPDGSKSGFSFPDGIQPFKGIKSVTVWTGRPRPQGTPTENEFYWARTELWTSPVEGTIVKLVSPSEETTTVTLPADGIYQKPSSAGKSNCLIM
Kind of assay: proximity labelling; BioID in Dictyostelium cells expressing BirA-R118G-NE81 or BirA-R118G alone (control); Western blots of nuclear extracts, split lanes stained with streptavidin-CIP, anti-NE81 and anti-Src1. On the technique in general: Immunoblotting shows a protein as a band on a membrane.

The next assay addresses BirA-R118G (E. coli) (UniProt P06709). The assay is described as above.

No constants are given. Whether binding was seen depends on the method and setting. In cells and extracts the contact can be indirect. These calls come from enrichment with a bait or labelling near it, and not all partners need be listed. For some assays here: No binding means not detected with the bait.

Consider “Src1 (Dictyostelium discoideum), endogenous”, for which the binding result in assay [1] was “binds”.

B1: NE81, endogenous (protein, UniProt Q54HI5 1-716)
chain: T1 sequence
Turning to B1, the binding entry in the assay with BirA-R118G (E. coli) is recorded as “no binding”.
